Some of the results follow. Repeats in this data set agree poorly, so a single value says little.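 In a drug-repurposing library screen, luminescence reads luciferase driven by eight TEAD-binding elements, stably integrated into human kidney-derived cells. Compounds scoring over five robust Z scores above the plate mean are called hits.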
System: HEK293A TEAD-LUC reporter
Experiment: TEAD-luciferase reporter activity (YAP activation), robust Z score vs plate; higher = stronger YAP/TEAD activation
Settings: 24 h

| SMILES | TEAD-luciferase reporter activity (compound concentration: 200 nM) | TEAD-luciferase reporter activity (compound concentration: 2 uM) | TEAD-luciferase reporter activity (compound concentration: 10 uM) |
| --- | --- | --- | --- |
| CCOC(=O)c1[nH]c2cc(OC)c(OC)cc2c1CCN1CCN(c2ccccc2)CC1 | inactive: -0.83 | inactive: -0.596 | inactive: 0.173 |
| CCC[C@H](N[C@H]1CCc2cc(F)cc(F)c2C1)C(=O)Nc1cn(C(C)(C)CNCC(C)(C)C)cn1 | inactive: -0.534 | inactive: -0.686 | inactive: -0.342 |
| O=C(NC[C@]1(CC2CC2)CC[C@H](S(=O)(=O)CC2CC2)CC1)c1ccc(Cl)cc1Cl [GlyT1 inhibitor, Merck &amp] | inactive: -1.25 | – | inactive: -0.616 |
| O=C(NC[C@]1(CC2CC2)CC[C@H](S(=O)(=O)CC2CC2)CC1)c1ccc(Cl)cc1Cl [GlyT1 inhibitor, Merck &amp_:_ Co] | – | inactive: 0.737 | – |
| CN1C(=O)C2(CCCN(C(=O)c3ccc(Cl)cc3)C2)Cc2ccccc21 (stereo not given) | inactive: 0.0662 | – | inactive: 0.513 |
| O=C(c1cc(Br)cn2ccnc12)N1CCC(N2CCCCC2)CC1 | inactive: -0.143 | – | inactive: 1.63 |
| Cc1nccn1CC1CCc2c(c3ccccc3n2C)C1=O [(R)-ondansetron] | – | inactive: -0.829 | – |
| Cc1nccn1CC1CCc2c(c3ccccc3n2C)C1=O (stereo not given) | active: 5.5 | – | inactive: 2.05 |
| N#Cc1c[nH]c2c(C(=O)N3CCN(CCc4ccc(F)cc4)CC3)cccc12 [pruvanserin] | inactive: -1.96 | inactive: 0.477 | inactive: -0.659 |
| N/C(=N/c1ccccc1)c1ccc(N)cc1 | inactive: -1.69 | inactive: -0.798 | inactive: -0.459 |
| CC(=O)NC[C@H]1CN(c2ccc(N3CCSCC3)c(F)c2)C(=O)O1 [sutezolid] | inactive: 0.332 | inactive: 0.341 | inactive: 0.866 |
| FC(F)(F)c1ccc2c(c1)N(CCCN1CCN(CCC3OCCCO3)CC1)c1ccccc1S2 | inactive: 0.109 | inactive: 1.24 | inactive: 1.11 |
| COCCOc1cnc(NS(=O)(=O)c2ccccc2)nc1 [Glymidine] | inactive: -1.16 | inactive: 0.805 | inactive: -0.045 |
| NC(=O)N(O)CC1=Cc2cc(Oc3ccccc3)ccc2OC1 | inactive: -3.31 | inactive: -0.312 | inactive: 3.45 |
| NC(=O)N1CC(Oc2cccc(C(F)(F)F)c2)C1 [Dezinamide] | inactive: 0.39 | inactive: 0.256 | inactive: -0.724 |
| CCCN1CCCCC12Cc1ccccc1CN(C(C)=O)C2 (stereo not given) | inactive: -0.423 | – | inactive: 0.0826 |
| C[C@@H]1CCC[C@H](C)N1NC(=O)c1ccc(Cl)c(S(N)(=O)=O)c1 [Clopamide] | inactive: -0.686 | inactive: -1.34 | inactive: 2.16 |
| COc1ccccc1CC(=N)N1C[C@@H]2C(=O)CCC(c3ccccc3)(c3ccccc3)[C@@H]2C1 | inactive: 0.0662 | inactive: -1.36 | inactive: 2.76 |

An excerpt of these results, with bars between the fields.
SMILES | TEAD-luciferase reporter activity (compound concentration: 200 nM) | TEAD-luciferase reporter activity (compound concentration: 2 uM) | TEAD-luciferase reporter activity (compound concentration: 10 uM)
FC(F)(F)c1ccc2c(c1)N(CCCN1CCN(CCC3OCCCO3)CC1)c1ccccc1S2 | inactive: 0.109 | inactive: 1.24 | inactive: 1.11
COCCOc1cnc(NS(=O)(=O)c2ccccc2)nc1 [Glymidine] | inactive: -1.16 | inactive: 0.805 | inactive: -0.045

From the supplement of paper PMC10735217
